{"source": "paper PMC4219657", "about": "“Structural and Mechanistic Basis of Zinc Regulation Across the E. coli Zur Regulon” (PLoS Biology, 2014)", "test_in_all_cases": "EMSA", "key": {"[1]": {"target": "T1, Zur D49A (Escherichia coli) (UniProt P0AC51)", "T1 sequence (looked up, limits assumed)": "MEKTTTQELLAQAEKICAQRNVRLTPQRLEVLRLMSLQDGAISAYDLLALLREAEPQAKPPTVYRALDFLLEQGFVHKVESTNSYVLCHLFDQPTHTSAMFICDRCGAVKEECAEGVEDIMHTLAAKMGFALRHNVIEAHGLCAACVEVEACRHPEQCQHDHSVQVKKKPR", "settings": "50 uM ZnSO4, Kd2, second dimer; EMSA: 10 mM Tris pH 8.0, 10 mM NaCl, 100 mM K-glutamate, 167 mM KCl, 1.5 mM MgCl2, 1 mM CaCl2, 50 uM ZnSO4, 1 mM DTT, 0.1 ug/ml BSA, 2 ug/ml salmon sperm DNA; recombinant protein; label: 5'-Cy5 on strand 1"}, "[2]": {"target": "T2, Zur R52A (Escherichia coli) (UniProt P0AC51)", "T2 sequence (looked up, limits assumed)": "T1 sequence (looked up, limits assumed) with A49D, R52A", "settings": "50 uM ZnSO4, Kd2, second dimer; EMSA: 10 mM Tris pH 8.0, 10 mM NaCl, 100 mM K-glutamate, 167 mM KCl, 1.5 mM MgCl2, 1 mM CaCl2, 50 uM ZnSO4, 1 mM DTT, 0.1 ug/ml BSA, 2 ug/ml salmon sperm DNA; recombinant protein; label: 5'-Cy5 on strand 1"}, "[3]": {"target": "T3, Zur C103S (Escherichia coli) (UniProt P0AC51)", "T3 sequence (looked up, limits assumed)": "T1 sequence (looked up, limits assumed) with A49D, C103S", "settings": "EMSA: 10 mM Tris pH 8.0, 10 mM NaCl, 100 mM K-glutamate, 167 mM KCl, 1.5 mM MgCl2, 1 mM CaCl2, 50 uM ZnSO4, 1 mM DTT, 0.1 ug/ml BSA, 2 ug/ml salmon sperm DNA, recombinant protein, label: 5'-Cy5 on strand 1"}, "[4]": {"target": "T4, Zur C88S (Escherichia coli) (UniProt P0AC51)", "T4 sequence (looked up, limits assumed)": "T1 sequence (looked up, limits assumed) with A49D, C88S", "settings": "EMSA: 10 mM Tris pH 8.0, 10 mM NaCl, 100 mM K-glutamate, 167 mM KCl, 1.5 mM MgCl2, 1 mM CaCl2, 50 uM ZnSO4, 1 mM DTT, 0.1 ug/ml BSA, 2 ug/ml salmon sperm DNA, recombinant protein, label: 5'-Cy5 on strand 1"}, "[5]": {"settings": "Zn-loaded protein, no excess Zn"}}, "note": "Residue numbers refer to the chain shown, from its start. For at least one entry, the source does not settle the construct or the ends of the probe. For part of these data: Negatives hold for the conditions tested. Tags and fusion partners may be left off the protein sequences shown. For part of these data: A weaker result is weaker than the reference pair of the same experiment.", "data": [{"sequence": "CCGAATATGAGAAGTGTGATATTATAACATTTCATGACTACTGCAAGACGG (double strand) [PznuABC 51 bp]", "values": [{"measurement": "Kd", "setting": "[1]", "value": 65, "unit": "nM"}, {"measurement": "Kd", "setting": "[2]", "value": 220, "unit": "nM"}, {"measurement": "binding result", "setting": "[3]; [5]", "value": "no binding"}, {"measurement": "binding result", "setting": "[3]; excess Zn, 50 uM ZnSO4", "value": "binds more weakly"}, {"measurement": "binding result", "setting": "[4]; [5]", "value": "no binding"}, {"measurement": "binding result", "setting": "[4]; excess Zn, 50 uM ZnSO4", "value": "binds more weakly"}]}]}
